This is an account of results in the supplement of paper PMC10849652.

Chains of the proteins cited; added tags and fusions are not shown. Lines headed by an entry give the natural chain unless they say otherwise; changes in a name come on top.
UniProt Q6P9F7: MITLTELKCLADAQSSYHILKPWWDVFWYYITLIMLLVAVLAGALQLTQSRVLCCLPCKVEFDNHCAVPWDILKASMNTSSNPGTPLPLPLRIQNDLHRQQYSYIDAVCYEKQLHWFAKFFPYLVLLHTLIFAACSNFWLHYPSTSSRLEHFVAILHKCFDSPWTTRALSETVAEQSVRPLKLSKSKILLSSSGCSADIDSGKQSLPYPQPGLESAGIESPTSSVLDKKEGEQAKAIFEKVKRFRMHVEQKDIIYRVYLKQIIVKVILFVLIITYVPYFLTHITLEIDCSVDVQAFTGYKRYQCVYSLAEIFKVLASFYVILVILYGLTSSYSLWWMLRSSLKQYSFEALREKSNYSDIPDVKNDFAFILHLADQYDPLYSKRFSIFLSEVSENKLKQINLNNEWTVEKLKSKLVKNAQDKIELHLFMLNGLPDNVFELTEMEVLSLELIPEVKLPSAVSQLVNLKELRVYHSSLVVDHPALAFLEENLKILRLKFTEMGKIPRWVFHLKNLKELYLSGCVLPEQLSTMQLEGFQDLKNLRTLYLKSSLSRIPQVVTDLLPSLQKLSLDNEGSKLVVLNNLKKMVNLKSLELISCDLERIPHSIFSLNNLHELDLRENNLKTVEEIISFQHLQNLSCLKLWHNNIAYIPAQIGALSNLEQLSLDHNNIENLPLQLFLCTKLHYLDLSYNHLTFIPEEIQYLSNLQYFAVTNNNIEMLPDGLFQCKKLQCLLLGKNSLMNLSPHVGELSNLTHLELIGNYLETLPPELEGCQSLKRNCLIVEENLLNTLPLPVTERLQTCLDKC
UniProt Q15759, whole entry, looked up: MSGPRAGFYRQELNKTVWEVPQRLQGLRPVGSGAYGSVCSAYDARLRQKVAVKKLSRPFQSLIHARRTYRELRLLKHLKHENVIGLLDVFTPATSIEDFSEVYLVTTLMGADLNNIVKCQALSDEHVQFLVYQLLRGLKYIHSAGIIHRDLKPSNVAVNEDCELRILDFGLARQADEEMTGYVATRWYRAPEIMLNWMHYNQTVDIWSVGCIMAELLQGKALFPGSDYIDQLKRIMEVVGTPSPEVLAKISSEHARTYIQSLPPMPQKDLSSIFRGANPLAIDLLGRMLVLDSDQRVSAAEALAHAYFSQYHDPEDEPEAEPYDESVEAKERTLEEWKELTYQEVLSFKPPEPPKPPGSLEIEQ
UniProt Q8IWC1: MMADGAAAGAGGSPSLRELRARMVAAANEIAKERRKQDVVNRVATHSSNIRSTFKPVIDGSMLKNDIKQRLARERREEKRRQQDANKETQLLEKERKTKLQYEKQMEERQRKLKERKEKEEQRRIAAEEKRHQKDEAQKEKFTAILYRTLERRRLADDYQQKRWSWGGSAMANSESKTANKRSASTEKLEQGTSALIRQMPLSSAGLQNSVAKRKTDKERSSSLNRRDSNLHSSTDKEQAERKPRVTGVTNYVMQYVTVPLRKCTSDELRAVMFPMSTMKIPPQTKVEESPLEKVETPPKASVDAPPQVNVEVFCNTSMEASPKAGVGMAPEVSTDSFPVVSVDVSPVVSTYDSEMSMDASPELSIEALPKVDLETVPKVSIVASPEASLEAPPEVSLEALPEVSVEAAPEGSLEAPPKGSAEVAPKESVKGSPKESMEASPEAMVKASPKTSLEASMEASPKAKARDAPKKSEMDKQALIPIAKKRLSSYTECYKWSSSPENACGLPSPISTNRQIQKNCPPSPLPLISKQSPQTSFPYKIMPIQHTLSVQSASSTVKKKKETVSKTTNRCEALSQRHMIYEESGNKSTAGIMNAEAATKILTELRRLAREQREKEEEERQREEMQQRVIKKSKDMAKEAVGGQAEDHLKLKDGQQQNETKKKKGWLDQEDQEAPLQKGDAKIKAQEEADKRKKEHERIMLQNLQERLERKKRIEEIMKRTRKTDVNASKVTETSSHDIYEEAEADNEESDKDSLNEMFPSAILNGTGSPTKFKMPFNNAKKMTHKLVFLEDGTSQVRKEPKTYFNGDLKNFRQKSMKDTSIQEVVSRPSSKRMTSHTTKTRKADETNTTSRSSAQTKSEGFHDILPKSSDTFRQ
UniProt Q8IZL2, whole entry, looked up: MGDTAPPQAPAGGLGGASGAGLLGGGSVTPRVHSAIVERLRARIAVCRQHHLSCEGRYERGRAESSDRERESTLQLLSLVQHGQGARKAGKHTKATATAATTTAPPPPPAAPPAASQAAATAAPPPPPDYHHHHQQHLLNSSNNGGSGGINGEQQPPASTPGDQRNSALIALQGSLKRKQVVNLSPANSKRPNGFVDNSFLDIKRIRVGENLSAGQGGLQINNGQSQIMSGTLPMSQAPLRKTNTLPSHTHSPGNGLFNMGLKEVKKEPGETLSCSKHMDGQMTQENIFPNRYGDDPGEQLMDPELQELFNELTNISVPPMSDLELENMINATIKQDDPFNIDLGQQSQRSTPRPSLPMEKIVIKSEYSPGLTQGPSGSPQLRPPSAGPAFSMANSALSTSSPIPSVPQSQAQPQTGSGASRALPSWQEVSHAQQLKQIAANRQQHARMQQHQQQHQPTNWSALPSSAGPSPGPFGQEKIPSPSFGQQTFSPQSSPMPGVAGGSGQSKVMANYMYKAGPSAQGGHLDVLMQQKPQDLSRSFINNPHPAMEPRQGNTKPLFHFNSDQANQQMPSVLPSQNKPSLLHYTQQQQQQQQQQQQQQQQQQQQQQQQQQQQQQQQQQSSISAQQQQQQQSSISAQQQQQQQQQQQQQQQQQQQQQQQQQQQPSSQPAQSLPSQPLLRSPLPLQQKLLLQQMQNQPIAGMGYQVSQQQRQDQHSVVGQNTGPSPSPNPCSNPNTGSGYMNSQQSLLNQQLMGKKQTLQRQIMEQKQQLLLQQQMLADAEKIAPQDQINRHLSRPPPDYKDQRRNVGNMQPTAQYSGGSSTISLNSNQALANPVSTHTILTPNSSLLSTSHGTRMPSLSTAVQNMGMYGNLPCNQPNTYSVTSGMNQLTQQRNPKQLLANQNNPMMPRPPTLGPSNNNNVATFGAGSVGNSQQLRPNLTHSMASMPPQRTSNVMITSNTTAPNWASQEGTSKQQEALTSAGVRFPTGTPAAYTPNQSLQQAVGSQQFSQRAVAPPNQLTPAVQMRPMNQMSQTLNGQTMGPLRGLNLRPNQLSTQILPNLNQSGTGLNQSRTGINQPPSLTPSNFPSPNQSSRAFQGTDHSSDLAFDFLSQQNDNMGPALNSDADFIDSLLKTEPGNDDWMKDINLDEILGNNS
UniProt Q99759: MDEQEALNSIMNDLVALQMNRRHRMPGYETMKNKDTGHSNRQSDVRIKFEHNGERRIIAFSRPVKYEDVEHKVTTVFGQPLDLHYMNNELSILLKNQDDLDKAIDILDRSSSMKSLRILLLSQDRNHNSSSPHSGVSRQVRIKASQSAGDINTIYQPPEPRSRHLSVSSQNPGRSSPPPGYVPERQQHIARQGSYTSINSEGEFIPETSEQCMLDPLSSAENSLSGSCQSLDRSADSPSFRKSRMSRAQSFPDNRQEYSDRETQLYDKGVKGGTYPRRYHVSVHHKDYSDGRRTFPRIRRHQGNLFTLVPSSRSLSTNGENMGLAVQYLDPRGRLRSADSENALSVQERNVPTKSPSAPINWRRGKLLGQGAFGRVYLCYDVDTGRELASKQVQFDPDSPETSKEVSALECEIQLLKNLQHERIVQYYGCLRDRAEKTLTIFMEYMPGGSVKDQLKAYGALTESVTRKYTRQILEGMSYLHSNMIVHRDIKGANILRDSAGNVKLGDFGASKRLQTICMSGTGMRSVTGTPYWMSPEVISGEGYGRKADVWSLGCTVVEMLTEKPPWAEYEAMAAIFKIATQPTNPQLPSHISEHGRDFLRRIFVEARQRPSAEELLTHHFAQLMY
UniProt Q9H063: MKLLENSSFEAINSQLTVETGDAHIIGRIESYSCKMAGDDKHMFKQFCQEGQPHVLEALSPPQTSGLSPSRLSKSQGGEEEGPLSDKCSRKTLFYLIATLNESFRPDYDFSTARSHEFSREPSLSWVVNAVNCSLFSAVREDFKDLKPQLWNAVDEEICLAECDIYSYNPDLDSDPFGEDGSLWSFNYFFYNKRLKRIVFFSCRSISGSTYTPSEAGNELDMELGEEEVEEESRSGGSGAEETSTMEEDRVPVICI
UniProt Q86UD3: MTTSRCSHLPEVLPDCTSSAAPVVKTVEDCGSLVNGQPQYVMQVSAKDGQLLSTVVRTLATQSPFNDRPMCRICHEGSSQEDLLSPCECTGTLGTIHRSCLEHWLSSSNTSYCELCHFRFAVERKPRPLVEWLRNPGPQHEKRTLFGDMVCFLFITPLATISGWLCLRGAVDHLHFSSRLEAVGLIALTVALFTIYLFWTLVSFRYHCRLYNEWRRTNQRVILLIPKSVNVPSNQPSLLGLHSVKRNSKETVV
UniProt Q9Y5V3: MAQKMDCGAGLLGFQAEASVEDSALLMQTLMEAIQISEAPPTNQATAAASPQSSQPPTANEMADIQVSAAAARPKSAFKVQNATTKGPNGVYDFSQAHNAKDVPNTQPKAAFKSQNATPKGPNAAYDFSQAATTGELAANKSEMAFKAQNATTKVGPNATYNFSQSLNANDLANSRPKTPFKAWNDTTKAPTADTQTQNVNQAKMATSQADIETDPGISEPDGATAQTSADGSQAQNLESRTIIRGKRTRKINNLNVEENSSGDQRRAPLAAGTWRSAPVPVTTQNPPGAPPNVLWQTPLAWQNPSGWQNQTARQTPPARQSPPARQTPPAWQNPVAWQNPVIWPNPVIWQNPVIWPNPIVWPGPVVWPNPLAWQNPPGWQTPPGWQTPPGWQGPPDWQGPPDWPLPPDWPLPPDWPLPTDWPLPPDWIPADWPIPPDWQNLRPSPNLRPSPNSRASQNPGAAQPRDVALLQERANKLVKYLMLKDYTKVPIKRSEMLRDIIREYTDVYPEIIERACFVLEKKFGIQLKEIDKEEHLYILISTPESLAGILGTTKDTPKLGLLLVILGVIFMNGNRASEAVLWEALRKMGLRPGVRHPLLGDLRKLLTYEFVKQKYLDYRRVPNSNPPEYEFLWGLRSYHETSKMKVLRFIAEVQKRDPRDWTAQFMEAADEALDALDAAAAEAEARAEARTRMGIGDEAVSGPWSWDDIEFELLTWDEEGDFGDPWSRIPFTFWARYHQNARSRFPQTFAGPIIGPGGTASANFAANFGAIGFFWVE
UniProt Q13164: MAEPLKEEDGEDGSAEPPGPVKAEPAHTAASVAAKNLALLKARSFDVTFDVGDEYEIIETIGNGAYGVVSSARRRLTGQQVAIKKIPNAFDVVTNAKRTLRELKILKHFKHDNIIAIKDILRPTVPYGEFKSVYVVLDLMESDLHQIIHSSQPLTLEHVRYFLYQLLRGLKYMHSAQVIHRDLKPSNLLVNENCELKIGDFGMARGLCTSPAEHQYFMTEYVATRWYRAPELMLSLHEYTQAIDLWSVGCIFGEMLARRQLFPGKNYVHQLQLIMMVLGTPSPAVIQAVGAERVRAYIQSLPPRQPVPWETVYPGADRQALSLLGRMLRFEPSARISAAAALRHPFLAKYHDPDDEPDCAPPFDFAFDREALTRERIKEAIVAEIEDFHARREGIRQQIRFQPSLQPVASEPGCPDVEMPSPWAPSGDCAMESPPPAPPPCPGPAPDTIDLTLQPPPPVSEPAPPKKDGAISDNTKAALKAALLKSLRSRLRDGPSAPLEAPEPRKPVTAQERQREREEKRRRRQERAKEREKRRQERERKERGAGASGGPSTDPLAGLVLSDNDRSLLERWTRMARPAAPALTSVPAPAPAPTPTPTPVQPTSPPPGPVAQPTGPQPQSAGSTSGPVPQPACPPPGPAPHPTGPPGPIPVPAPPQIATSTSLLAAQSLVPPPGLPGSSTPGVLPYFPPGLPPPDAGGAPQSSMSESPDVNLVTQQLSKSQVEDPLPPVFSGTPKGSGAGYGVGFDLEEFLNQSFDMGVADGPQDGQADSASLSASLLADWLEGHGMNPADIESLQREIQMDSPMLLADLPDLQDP
UniProt P07948: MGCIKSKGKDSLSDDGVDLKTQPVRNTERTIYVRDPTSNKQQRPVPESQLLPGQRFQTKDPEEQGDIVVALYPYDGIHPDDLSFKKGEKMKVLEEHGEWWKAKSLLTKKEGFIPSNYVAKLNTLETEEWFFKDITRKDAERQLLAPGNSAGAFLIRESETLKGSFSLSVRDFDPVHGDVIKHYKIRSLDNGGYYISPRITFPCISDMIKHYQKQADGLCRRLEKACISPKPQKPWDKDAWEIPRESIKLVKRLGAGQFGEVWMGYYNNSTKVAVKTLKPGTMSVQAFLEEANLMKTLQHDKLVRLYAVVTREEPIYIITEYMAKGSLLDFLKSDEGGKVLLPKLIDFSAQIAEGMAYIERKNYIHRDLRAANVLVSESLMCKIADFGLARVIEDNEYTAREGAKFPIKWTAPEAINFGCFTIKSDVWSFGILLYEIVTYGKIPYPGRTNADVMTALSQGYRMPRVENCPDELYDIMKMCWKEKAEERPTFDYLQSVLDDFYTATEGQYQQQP

The list shows a part of the results.

Compound in one experiment: CC(C)(C)Cn1c(N)nc2ccc(-c3[nH]c(C(C)(C)C)nc3-c3ccc(F)cc3)nc21 [ralimetinib]
Briefly: log2 fold change, soluble protein after heating vs DMSO (PISA); higher = thermal stabilisation; K562 cells, 10 uM, 30 min; active = over 0.2 and 3.5 SD of the protein, either way, in both replicates (recomputed). The essentials:
(§1)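 K562 cells at 2×10^6 cells/mL were treated for 30 min with 10 μM compound, and aliquots were heated for 3 min over 48°C-58°C before pooling. Extraction used PBS with 0.5% NP-40 at 4°C, and soluble protein was the supernatant after 21,000xg for 90 min, measured by TMTpro 16plex LC-MS/MS with channel sums equalised. Thermal stability values, relative to control samples and from duplicates, are log2 fold changes.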
Consider MAP2K5 (UniProt Q13163), for which the log2 fold change was inactive: 0.066.

MAPKAP1 (UniProt Q9BPZ7): the log2 fold change was inactive: 0.035.

Take LRRC8B (UniProt Q6P9F7): the log2 fold change was inactive: 0.135.

Take MAFG (UniProt O15525): the log2 fold change is inactive: 0.044.

As for MAML1 (UniProt Q92585), the log2 fold change is inactive: 0.013.

On to MAP4 isoform 5 (UniProt P27816), for which the log2 fold change is inactive: -0.019.

As for MAPK11 (UniProt Q15759), the log2 fold change was active: 1.47.

Take LRRCC1 (UniProt Q9C099): the log2 fold change was inactive: 0.043.

For the target LTBP1 isoform 4 (UniProt Q14766), the log2 fold change was inactive: -0.013.

Turning to MAP7D3 (UniProt Q8IWC1), the log2 fold change is inactive: 0.332.

As for MAML2 (UniProt Q8IZL2), the log2 fold change is inactive: -0.047.

Consider LYPLA1, A0A087X1K9, for which the log2 fold change is inactive: -0.018.

Turning to MAP3K3 isoform 2 (UniProt Q99759), the log2 fold change is inactive: -0.004.

On to MAF1 (UniProt Q9H063), for which the log2 fold change was inactive: -0.112.

Compound in the next experiment: CC(C)(O)CC(=O)NCCn1ccc2ncnc(Nc3ccc(Oc4cccc(C(F)(F)F)c4)c(Cl)c3)c21
The description is as above. The essentials:
as §1
As to MAPKAP1 (UniProt Q9BPZ7), the log2 fold change is inactive: -0.313.

Consider MAP3K20 isoform 2 (UniProt Q9NYL2), for which the log2 fold change is inactive: 0.078.

In the case of LRRC8B (UniProt Q6P9F7), the log2 fold change was inactive: 0.052.

For MAFG (UniProt O15525), the log2 fold change was inactive: 0.109.

MAML1 (UniProt Q92585): the log2 fold change was inactive: 0.02.

On to MAP4 isoform 5 (UniProt P27816), for which the log2 fold change is inactive: 0.052.

For MARCHF3 (UniProt Q86UD3), the log2 fold change was inactive: -0.133.

Consider MAGED1 isoform 2 (UniProt Q9Y5V3), for which the log2 fold change was inactive: -0.136.

In the case of LTBP1 isoform 4 (UniProt Q14766), the log2 fold change is inactive: 0.093.

Consider LRRFIP1 isoform 4 (UniProt Q32MZ4), for which the log2 fold change was inactive: -0.019.

Turning to MAPK7 (UniProt Q13164), the log2 fold change is inactive: 0.008.

As to MAP7D3 (UniProt Q8IWC1), the log2 fold change is inactive: -0.005.

For MAN2B1 (UniProt M0QYZ1), the log2 fold change was inactive: 0.021.

On to MAP3K3 isoform 2 (UniProt Q99759), for which the log2 fold change is inactive: -0.27.

Regarding LSR (UniProt M0QZL9), the log2 fold change is inactive: 0.057.

For the target LYN isoform 2 (UniProt P07948), the log2 fold change was inactive: 0.002.

As to LTBP4 (UniProt Q8N2S1), the log2 fold change is inactive: -0.069.

On to MAD2L2 (UniProt Q9UI95), for which the log2 fold change is inactive: -0.351.

For the target LYST (UniProt Q99698), the log2 fold change is inactive: 0.096.

MAPT isoform 9 (UniProt P10636): the log2 fold change is inactive: 0.086.
